## Primary screen of a compound library

Measurements from “University of Dundee, Small-Polar-MMV Screening Library” (2021), ChEMBL document CHEMBL3988442.

A: 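Whole-cell assay for inhibitors of Mycobacterium tuberculosis growth, labelled Cornell in the record; the read-out is not stated. The concentration is filed as 10 mM, unlikely as a test dose, so the dose is not known. The record gives no direction; compounds strong in two other growth screens of this library score well above the rest, so higher reads as stronger inhibition. Of about 53,000 compounds tested this way, about 900 (1.7%) reached 50% or more in at least one test.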
B: 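Assay on Mycobacterium tuberculosis, filed only as a heat shock assay from Cornell; the read-out is not stated. The concentration is filed as 10 mM, unlikely as a test dose, so the dose is not known. Higher reads as stronger inhibition (inferred: compounds with an IC50 in retests scored well above the rest). About 69,000 compounds were tested under these conditions; 1.4% (about 930) showed 50% or more at least once.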

Each number is a percent effect as filed. The record does not define 0% and 100%; most values in the screen are far below 50% and negative numbers occur (in some assays of this library far below -100). The compounds are a random part of those screened. A dash means the value is not listed here; it may have been measured.

Compound,A,B
CC(C)c1nccn1C1CCCN(C(=O)c2ccc3[nH]cnc3c2)C1 (centres undefined),-20.27,7.592
COc1cc(C(=O)NCCc2ccccc2OC)on1,48.85,38.82
O=C(O)C(F)(F)F.O=C1CCC2(CCCN(C(=O)c3ccccn3)CC2)N1 (centres undefined),-,-7.563
COc1ccc(OC2CCN(C(=O)c3ccc(C)[nH]c3=O)CC2)cc1,-,-5.662
O=C(O)C(F)(F)F.[H][C@@]12COC[C@H](C(=O)N3CCCCO3)[C@]1([H])CN(Cc1ccc(C)o1)C2,-,4.688
CS(=O)(=O)c1ccc(NC(=O)N2C[C@H](O)[C@@H](N3CCOCC3)C2)cc1,-5.994,-16.7
O=C(NCc1nn(-c2ccccc2)c2c1CCC2)NC1CC1,13.84,16.23
CCc1noc(C(C)N2CCC(O)CC2)n1 (centres undefined),-61.38,-4.932
Cc1ccc(-c2nc(CNC(C)Cn3cccn3)cs2)o1 (centres undefined),-,55.14
Cc1ccc(CN2C(=O)CCC2C(=O)Nc2cnn(C)c2)o1 (centres undefined),39.3,12.05
CC(C)(C)n1nnnc1CN(CCc1ccccc1)Cc1ccccc1,5.894,-16.03
CN(CC(=O)NCCc1ccccn1)C(=O)c1cccs1,-9.987,4.175
CCOCCCC(=O)NCc1ccnc(N2CCN(C)CC2)c1,-24.34,-12.17
O[C@@H]1C[C@@H](c2nc(Cc3ccccc3)no2)N(CC2CC2)C1,-,-30.05
Cc1cccc(C(C(=O)NC(C)(C)CN2CCOCC2)N(C)C)c1 (centres undefined),-18.68,-40.21
CN1CCCN(S(=O)(=O)c2cn(C)cn2)c2cc(F)ccc21,-,-14.19
Cc1cc(Nc2cnccn2)cc(C2CCCN2)n1 (centres undefined),1.221,-16.58
Cc1nn(C)c2c(NCc3ccccc3F)nc(C3CC3)nc12,18.88,-0.5302
NC(=O)c1nc2c(s1)CCN(Cc1ccccc1)CC2.O=C(O)C(F)(F)F,14.98,-13.3
COc1cccc(CCC2CCCN(C(=O)c3n[nH]c4c3CCC4)C2)c1 (centres undefined),-,4.839
COc1ccnc(N2CCN(C(=O)c3csc(C(C)C)n3)CC2)n1,-19.8,-5.29
Cc1ccccc1CC1(CO)CCCN(c2ncncc2C(C)C)C1 (centres undefined),81.01,18.76
CNc1cc2c(nn1)CCN(C(=O)c1ccc3c(c1)OCO3)C2,-,4.126
CN(C)CC(=O)Nc1ccc(C(=O)N(C)CCc2cn[nH]c2)cc1,2.825,-41.52
Cn1ccnc1CCNS(=O)(=O)c1cccnc1,-,-16.32
CC(C)N1Cc2c(C(=O)N3CCOCC3)nn(C)c2C1.O=C(O)C(F)(F)F.O=C(O)C(F)(F)F,16.13,-12.04
CNc1cc(C)nc(C2COCCN2Cc2csc(C)n2)n1 (centres undefined),10.84,-13.42
Cc1noc(C)c1CNCc1ccccc1N(C)C1CCN(C)CC1,-4.761,-0.2829
COc1ccc(-c2c[nH]c([C@@H]3COCCN3)n2)cc1,2.586,-11.69
Cc1n[nH]c(=O)c2c(NC(=O)CN3CCC(O)CC3)oc(C)c12,-24.99,22.8
O[C@H]1CN(Cc2ccnc(N3CCCC3)n2)CC[C@@]12CCCO2,-2.86,12.87
CC(C)(C)NC(=O)C1CSCN1S(=O)(=O)c1ccc(F)cc1 (centres undefined),-,11.81
[H][C@]12CN(Cc3ccccn3)CCN1C[C@@H](c1ccccc1)[C@@H]2C(=O)NC,6.984,-8.652
CNS(=O)(=O)CC1CCCN1c1ccc(Cl)cn1 (centres undefined),-,-26.74
O=C1CCC2(CCOC2)CN1CCCOc1cccnc1 (centres undefined),23.63,16.98
[H][C@]12CC[C@]([H])(CN(C(=O)c3cc(F)cc(Cl)c3)C1)N(Cc1ccccc1)C2,12.75,13.97
CC(=O)Nc1ccc(SCC(O)COCc2ccco2)cc1 (centres undefined),14.08,16.9
COc1cccc(Nc2nc(-c3ccncc3)nc3c2CNCC3)c1.Cl,-3.556,9.794
Cc1nc(C)n(CC2CCCCN2CCc2ccncc2)n1 (centres undefined),-,11.05
O=C(O)C(F)(F)F.[H][C@@]12CCN(C3CCOCC3)C[C@@]1([H])O[C@H](C(=O)N1CCOCC1)C2,-,-13.63
Cn1nc(CN2CCCCC2)c2c1CN(C(=O)Nc1cccc(F)c1)C2,-21.28,-20.42
CCS(=O)(=O)Nc1ccn(Cc2c(F)cccc2Cl)n1,21.48,-10.16
CC(=O)N(CCc1ccccc1)CC(=O)Nc1ccccc1C#N,25.62,-30.02
COc1ccc(OCC(=O)n2nc(C)c(C)c2C)cc1,-29.82,0.8038
Cc1nc(C)c(CC(=O)Nc2nc(C)c(C)s2)c(=O)[nH]1,-,-6.996
O=C(C1CC1)N1CCCC1c1nnc2n1CCCCC2 (centres undefined),-6.591,-22.65
Cc1noc(C)c1CN(Cc1cccnc1)C1CN2CCC1CC2 (centres undefined),-49.38,-45.33
O=C(CCn1c(C(F)F)cc2cccnc21)NC1CCCC1,-12.05,-19.29
O=C(O)C(F)(F)F.O=C(c1ccc[nH]1)N1CCn2cc(Cn3cccn3)nc2C1,-32.1,-0.1806
O=C(O)C(F)(F)F.[H][C@@]12CCN(Cc3c(C)noc3C)C[C@]1([H])[C@H](C(=O)NCC1CC1)CCO2,5.062,-28.18
Cc1cc2c(=O)n(CC(=O)N3CCn4cccc4C3C(C)C)cnc2s1 (centres undefined),56.81,5.168
CC(C)CN1CCN(C(=O)c2cccnc2-n2cncn2)CC1,-33.75,-19.08
CC(C(=O)Nc1ccc(N2CCCC2)nc1)n1cccn1 (centres undefined),-18.24,5.1
O=C(NCC1CC1)Nc1cccc(N2CCN(CC3CC3)CC2)c1,7.119,1.454
Cc1cc(C)c2cc(CNCc3ccccc3)c3nn(C)c(=O)n3c2c1,13.8,-23.5
CC(CNC(=O)c1cc(C2CC2)nc2c1cnn2C)Cn1cccn1 (centres undefined),37.47,-13.29
COc1ccc(F)cc1C(=O)C1CCCN(Cc2cnc(C)s2)C1 (centres undefined),-,2.917
Cc1cc(C(=O)N(C)Cc2ccn[nH]2)c(NC(=O)C(C)(C)C)s1,9.751,-24.15
Cc1nnsc1CNC(=O)c1ccc2c(c1)nc(N1CCOCC1)n2C,17.06,8.561
Cc1ccc(C)c(Oc2ccc(CNC(=O)C3CCS(=O)(=O)C3)cn2)c1 (centres undefined),6.601,6.32
CN(C)CCOCc1cncc2c1CCN(Cc1ccccn1)C2.O=C(O)C(F)(F)F.O=C(O)C(F)(F)F.O=C(O)C(F)(F)F,-6.246,-3.02
Cc1cc(CN2CCOC(C)(C(=O)N3CCOCC3)C2)no1 (centres undefined),0.2683,-5.613
COc1ccc(C(=O)O)c(OCC(=O)NC(C)c2ccc(F)cc2)c1 (centres undefined),11.41,2.125
CCCC(=O)N1CCC(Nc2ncc(Br)cn2)CC1,37.09,21.78
CN(C)C(CNC(=O)NCc1cc[nH]n1)c1ccco1 (centres undefined),-,9.918

6 of the entries, repeated:

{"compound": "COc1ccc(-c2c[nH]c([C@@H]3COCCN3)n2)cc1", "A": 2.586, "B": -11.69}
{"compound": "Cn1ccnc1CCNS(=O)(=O)c1cccnc1", "B": -16.32}
{"compound": "CCCC(=O)N1CCC(Nc2ncc(Br)cn2)CC1", "A": 37.09, "B": 21.78}
{"compound": "NC(=O)c1nc2c(s1)CCN(Cc1ccccc1)CC2.O=C(O)C(F)(F)F", "A": 14.98, "B": -13.3}
{"compound": "COc1cccc(CCC2CCCN(C(=O)c3n[nH]c4c3CCC4)C2)c1", "stereo": "centres undefined", "B": 4.839}
{"compound": "CN(C)CC(=O)Nc1ccc(C(=O)N(C)CCc2cn[nH]c2)cc1", "A": 2.825, "B": -41.52}